Source: the supplement of paper PMC10338343
± gives the standard deviation. Only a part is listed here, and it is no random draw. Many entries were measured with a wide error.

The sequences below were run on MILI (PIWIL2) piRISC loaded with piRNA #1 (26 nt) (assay: pre-steady-state target cleavage rate (min^-1); MIWI and MILI are mouse PIWI proteins and EfPiwi is from a freshwater sponge; tags in brackets are library labels; higher = faster piRNA-guided slicing of the target). Conditions: guide: piRNA #1 5'p-UGAGGUAGUAGGUUGUAUAGUAUCCA; auxiliary factor: 500 nM mouse GTSF1.
Summary of the method: (§1)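 Cleave-'n-Seq used a transcribed, DNA-blocked target RNA library at 0.1 nM and active affinity-purified piRISC with one synthetic guide at 1 nM, with or without 500 nM GTSF1 partner protein, in HEPES–potassium acetate buffer at 33 °C for 0–8 or 0–960 min. Uncleaved targets were sequenced and normalised to depth and to weakly complementary targets, and three trials were pooled with k3 capped at 0.0001 min^-1. The pre-steady-state cleavage rate was estimated by a burst-and-steady-state fit.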

Row | Sequence | pre-steady-state target cleavage rate
1 | GGAGACCUAUGAAUACAGACCUACUACCUCA | 0.0006 ± 0.012
2 | GGAGACCUAUGAUUACAUCCUAGUACCUCA | 0.00204 ± 0.0037
3 | GGAGACCUAUGAUUACAACGUACAACCUCA | 0.00532 ± 0.0027
4 | GGAGAGGAUACUAUACAACCUUGAUGGAGA [g10:g25:cont:t1A] | 0.00052 ± 0.0089
5 | GGAGACCUAUGAUAACAACCUAGCUACCUCA | 0.00341 ± 0.0035
6 | GGAGACCUAUGAAAACAACGUACUACCUCA | 0.00272 ± 0.0028
7 | GGAGACCUAUGAUAUGUUGCAACUACGUCA | 0.000619 ± 0.009
8 | GGAGACCUAUGAAUACAUGCUACUACCUCA | 0.00268 ± 0.0026
9 | GGAGACCUAUGAUAUGUUCUUACUACCUCA | 0.000292 ± 0.0094
10 | GGAGACCUAUGAUUACAACCAAGUACCUCA | 0.00279 ± 0.0028
11 | GGAGACCUAUGAUAUGUUGGUACUACCUACA | 0.000533 ± 0.011
12 | GGAGACGAUACUAUACAACCUACUACCUCG [g2:g24:cont:t1G] | 0.183 ± 0.014
13 | GGAGAGGAUACUAUACAACCUAGAUCCUCA | 0.000399 ± 0.014
14 | GGAGACCUAUCUAUACAACCUUCUACCACA | 0.00592 ± 0.0023
15 | GGAGUGGAUACUAUACAACCUACUUCCUGA | 0.000232 ± 0.0094
16 | GGAGACCUAACUAUACAACCUAGUACCUGA | 0.000655 ± 0.019
17 | GGAGACCUAUGAUAUGUUCACUACUACCUCA | 0.000483 ± 0.014
18 | GGAGACCUAUGAUAACAACCUAUUACCUCA | 0.00248 ± 0.0027
19 | GGAGACCUAUGAUAUGUUGGUACUCCCUCA | 0.00032 ± 0.015
20 | GGAGACCUAUGAUAUCAACAUACUACCUCA | 0.00109 ± 0.0074

Row | Sequence | pre-steady-state target cleavage rate
21 | GGAGACCUAUGAUAUGUUGCAUACUACCUCA | 0.000535 ± 0.0087
22 | GGAGACCUAUGAUAUGUUCAUACUACCUCA | < 0.0001
23 | GGAGACCUAUGAUAUGUUGCUACUUACCUCA | 0.000395 ± 0.012
24 | GGAGACCUAUGAUAACAACCGUACUACCUCA | 0.00235 ± 0.0036
25 | GGAGACCUAUGAAUACAACCUAGUACGUCA | 0.000821 ± 0.0073
26 | GGAGACCUAUGAUAUCAACCUACUACCCCA | 0.000794 ± 0.0078
27 | GGAGACCUAUGAAUACAUGGUACUACCUCA | 0.000293 ± 0.013
28 | GGAGACCUAACUAUACAACCACUACCUCA | 0.00068 ± 0.018
29 | GGAGAGGAUACUAUACAACGAUCUACCUCA | 0.000672 ± 0.01
30 | GGAGACCUAUGAUAUGUACCUAGCUACCUCA | 0.000271 ± 0.011
31 | GGAGACCUAUGAUAUCAACCAUGUACCUCA | 0.000325 ± 0.019
32 | GGAGACCUAUGUAUACAACCAACUAGCUCA | 0.00118 ± 0.0058
33 | GGAGACCUAUGAUAUCAACCUAGUACCUCA | 0.000943 ± 0.0044
34 | GGAGACCUAUGAUAUCACACCUACUACCUCA | 0.000837 ± 0.0049
35 | GGAGACCUAUGAUAUGUACUUACUACCUCA | 0.00077 ± 0.0068
36 | GGAGACCUAUGAAUACAACCUAGUUCCUCA | 0.000749 ± 0.0066
37 | GGAGACCUAUGAAUACAACCCUACUACCUCA | 0.0013 ± 0.0049
38 | GGAGACCUAUCUAUACAACCUAUACCUCA | 0.00215 ± 0.0035
39 | GGAGACCUAUGAUAACAUCCAACUACCUCA | 0.000732 ± 0.0056
40 | GGAGACCUAUCUAUACAACGAUCUACCUCA | 0.000958 ± 0.0071

What follows are sequences tested on MIWI (PIWIL1) piRISC loaded with piRNA #1 (30 nt) in the same assay as above. Conditions: guide: piRNA #1 5'p-UGAGGUAGUAGGUUGUAUAGUAUCCAGAGG; auxiliary factor: 500 nM mouse GTSF1.
Summary of the method: as §1

Row | Sequence | pre-steady-state target cleavage rate
41 | GGAGACCUAUGAAUACAGACCUACUACCUCA | 0.000221 ± 0.014
42 | GGAGACCUAUGAUUACAUCCUAGUACCUCA | 0.000779 ± 0.0052
43 | GGAGACCUAUGAUUACAACGUACAACCUCA | 0.000297 ± 0.007
44 | GGAGAGGAUACUAUACAACCUUGAUGGAGA [g10:g25:cont:t1A] | 0.0006 ± 0.0088
45 | GGAGACCUAUGAUAACAACCUAGCUACCUCA | 0.000442 ± 0.0061
46 | GGAGACCUAUGAAAACAACGUACUACCUCA | 0.000297 ± 0.0083
47 | GGAGACCUAUGAUAUGUUGCAACUACGUCA | 0.000861 ± 0.0056
48 | GGAGACCUAUGAAUACAUGCUACUACCUCA | 0.000114 ± 0.02
49 | GGAGACCUAUGAUAUGUUCUUACUACCUCA | 0.000628 ± 0.0054
50 | GGAGACCUAUGAUUACAACCAAGUACCUCA | 0.000863 ± 0.0036
51 | GGAGACCUAUGAUAUGUUGGUACUACCUACA | 0.000399 ± 0.011
52 | GGAGACGAUACUAUACAACCUACUACCUCG [g2:g24:cont:t1G] | 1.1 ± 0.063
53 | GGAGAGGAUACUAUACAACCUAGAUCCUCA | 0.00201 ± 0.0045
54 | GGAGACCUAUCUAUACAACCUUCUACCACA | 0.136 ± 0.015
55 | GGAGUGGAUACUAUACAACCUACUUCCUGA | 0.000264 ± 0.0097
56 | GGAGACCUAACUAUACAACCUAGUACCUGA | 0.0015 ± 0.0071
57 | GGAGACCUAUGAUAUGUUCACUACUACCUCA | 0.000662 ± 0.011
58 | GGAGACCUAUGAUAACAACCUAUUACCUCA | 0.000676 ± 0.0056
59 | GGAGACCUAUGAUAUGUUGGUACUCCCUCA | 0.000727 ± 0.0086
60 | GGAGACCUAUGAUAUCAACAUACUACCUCA | 0.00034 ± 0.01

Row | Sequence | pre-steady-state target cleavage rate
61 | GGAGACCUAUGAUAUGUUGCAUACUACCUCA | 0.00101 ± 0.0051
62 | GGAGACCUAUGAUAUGUUCAUACUACCUCA | 0.000859 ± 0.0054
63 | GGAGACCUAUGAUAUGUUGCUACUUACCUCA | 0.000447 ± 0.0087
64 | GGAGACCUAUGAUAACAACCGUACUACCUCA | 0.000712 ± 0.007
65 | GGAGACCUAUGAAUACAACCUAGUACGUCA | 0.000549 ± 0.006
66 | GGAGACCUAUGAUAUCAACCUACUACCCCA | 0.000341 ± 0.0061
67 | GGAGACCUAUGAAUACAUGGUACUACCUCA | 0.000688 ± 0.0083
68 | GGAGACCUAACUAUACAACCACUACCUCA | 0.000459 ± 0.018
69 | GGAGAGGAUACUAUACAACGAUCUACCUCA | 0.000875 ± 0.0092
70 | GGAGACCUAUGAUAUGUACCUAGCUACCUCA | 0.000136 ± 0.02
71 | GGAGACCUAUGAUAUCAACCAUGUACCUCA | 0.000535 ± 0.008
72 | GGAGACCUAUGUAUACAACCAACUAGCUCA | 0.000358 ± 0.0066
73 | GGAGACCUAUGAUAUCAACCUAGUACCUCA | 0.000303 ± 0.0061
74 | GGAGACCUAUGAUAUCACACCUACUACCUCA | 0.000178 ± 0.011
75 | GGAGACCUAUGAUAUGUACUUACUACCUCA | 0.000657 ± 0.0059
76 | GGAGACCUAUGAAUACAACCUAGUUCCUCA | 0.000145 ± 0.013
77 | GGAGACCUAUGAAUACAACCCUACUACCUCA | 0.000271 ± 0.011
78 | GGAGACCUAUCUAUACAACCUAUACCUCA | 0.000558 ± 0.0078
79 | GGAGACCUAUGAUAACAUCCAACUACCUCA | 0.000202 ± 0.01
80 | GGAGACCUAUCUAUACAACGAUCUACCUCA | 0.000157 ± 0.016
